Measured values from the supplement of paper PMC12823440, “Inhibitors supercharge kinase turnover through native proteolytic circuits” (Nature, 2025).
Counter-ions that a name gives are not always drawn. Some of the results follow. Hit calls seldom repeat between salt and free forms of one compound.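 Kinases, fused to nanoluciferase, were expressed in K562 cells; luminescence was measured every 4 h from 2 to 18 h as percent of control (DMSO = 100%, positive control = 0%). A time point is decreased if signal falls significantly (2 sigma). Hits were called by the authors by a rule that is not shown; the count of time points alone does not decide it.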

Chains of the proteins cited; added tags and fusions are not shown. Lines headed by an entry give the natural chain unless they say otherwise; changes in a name come on top.
UniProt Q06187: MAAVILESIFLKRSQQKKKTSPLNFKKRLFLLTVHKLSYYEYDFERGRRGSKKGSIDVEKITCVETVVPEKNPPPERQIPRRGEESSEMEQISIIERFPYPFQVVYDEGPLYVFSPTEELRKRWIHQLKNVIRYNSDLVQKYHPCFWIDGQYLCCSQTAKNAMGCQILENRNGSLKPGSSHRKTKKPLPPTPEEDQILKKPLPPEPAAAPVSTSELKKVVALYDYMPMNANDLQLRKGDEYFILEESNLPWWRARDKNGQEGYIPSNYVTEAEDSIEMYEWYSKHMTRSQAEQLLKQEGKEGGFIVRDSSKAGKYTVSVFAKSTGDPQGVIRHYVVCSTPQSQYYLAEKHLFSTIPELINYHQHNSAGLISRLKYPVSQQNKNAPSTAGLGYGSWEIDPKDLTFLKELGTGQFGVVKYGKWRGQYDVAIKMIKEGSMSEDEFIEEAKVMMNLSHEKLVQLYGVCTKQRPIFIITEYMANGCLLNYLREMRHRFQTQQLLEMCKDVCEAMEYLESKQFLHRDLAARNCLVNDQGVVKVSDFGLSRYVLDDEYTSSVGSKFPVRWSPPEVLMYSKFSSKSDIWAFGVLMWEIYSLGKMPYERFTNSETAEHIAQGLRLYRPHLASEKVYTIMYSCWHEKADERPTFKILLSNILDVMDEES
UniProt Q9UQM7, whole entry: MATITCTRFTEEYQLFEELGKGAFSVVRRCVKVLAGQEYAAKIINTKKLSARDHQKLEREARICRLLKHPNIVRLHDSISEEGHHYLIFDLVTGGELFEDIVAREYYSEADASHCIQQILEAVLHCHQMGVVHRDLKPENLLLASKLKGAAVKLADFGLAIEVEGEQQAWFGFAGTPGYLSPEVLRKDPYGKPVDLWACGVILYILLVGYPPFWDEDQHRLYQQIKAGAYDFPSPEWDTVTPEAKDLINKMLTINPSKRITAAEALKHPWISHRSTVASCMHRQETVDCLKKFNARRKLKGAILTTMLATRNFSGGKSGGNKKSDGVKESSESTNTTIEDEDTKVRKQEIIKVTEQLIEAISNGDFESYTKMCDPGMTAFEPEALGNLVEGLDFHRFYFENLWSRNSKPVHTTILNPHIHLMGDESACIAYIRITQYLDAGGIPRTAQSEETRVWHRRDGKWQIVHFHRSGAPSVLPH

Each molecule was assayed against BTK (UniProt Q06187) (assay: kinase-Nluc reporter destabilization hit call (1 = scored as downregulated) (binary); higher = compound decreases kinase abundance). Details: K562; 2-18 h.

| Structure (SMILES) | kinase-Nluc reporter destabilization hit call |
| --- | --- |
| CCCCNc1nc(N)c2[nH]c(=O)n(Cc3ccc(C)nc3)c2n1 (10 µM) | inactive: 0 |
| N#CC(C#N)=Cc1ccc([N+](=O)[O-])c(O)c1 (10 µM) | inactive: 0 |
| O=c1[nH]c2ccccc2n1C1CCN(Cc2ccc(-c3[nH]c4cc5ncnc5cc4nc3-c3ccccc3)cc2)CC1 [AKT inhibitor VIII] (2.5 µM) | inactive: 0 |
| CC(=O)Oc1ccc(/C=C/c2cc(OC(C)=O)cc(OC(C)=O)c2)cc1 [Triacetylresveratrol] (10 µM) | inactive: 0 |
| O=C1c2ccccc2C(=O)c2c1cccc2-c1cnn(C2CCNCC2)c1 [PDK4-IN-1 (hydrochloride)] (10 µM) | inactive: 0 |
| CC1C(=O)OC2C(O)C34C5OC(=O)C3(OC3OC(=O)C(O)C34C(C(C)(C)C)C5O)C12O (stereo unspecified) [Ginkgolide C] (10 µM) | inactive: 0 |
| O=Cc1cn(Cc2ccc(Cl)cc2)c2ccccc12 [Oncrasin-1] (10 µM) | inactive: 0 |
| N#CC(C#N)=NNc1cccc(Cl)c1 (2.5 µM) | inactive: 0 |
| CC(C)=CC[C@@H](OC(=O)CC(C)(C)O)C1=CC(=O)c2c(O)ccc(O)c2C1=O [β-Hydroxyisovalerylshikonin] (2.5 µM) | inactive: 0 |
| O=c1ccc2cc(O[C@@H]3O[C@H](CO)[C@@H](O)[C@H](O)[C@H]3O)c(O)cc2o1 [Esculin] (10 µM) | inactive: 0 |
| C[C@H]1CC[C@]2(NC1)O[C@H]1C[C@H]3[C@@H]4CC[C@H]5C[C@@H](O)CC[C@]5(C)[C@H]4CC[C@]3(C)[C@H]1[C@@H]2C [Tomatidine] (2 µM) | inactive: 0 |
| C/C(O)=C(\C#N)C(=O)Nc1cc(Br)ccc1Br (10 µM) | inactive: 0 |
| COc1ccc2c(c[n+](C)c3c4cc5c(cc4ccc23)OCO5)c1OC [Chelerythrine (chloride)] (10 µM) | inactive: 0 |
| COc1ccc2c(c1)[nH]c1c(C)nccc12 [Harmine] (10 µM) | inactive: 0 |
| CCCCCCCCCCCCCCCCOC[C@H](COP(=O)([O-])OCC[N+](C)(C)C)OC(C)=O (10 µM) | inactive: 0 |
| O=C(O)c1sc2cc(Cl)ccc2c1Cl (10 µM) | inactive: 0 |
| C[S+]([O-])/C=C/CCN=C=S (stereo unspecified) [Sulforaphene] (10 µM) | inactive: 0 |
| Cn1cc(C2=C(c3cn(C4CCN(Cc5ccccn5)CC4)c4ccccc34)C(=O)NC2=O)c2ccccc21 [Enzastaurin] (10 µM) | inactive: 0 |
| CCN1CCN(C(=O)Cc2ccc(Nc3ncc(F)c(Nc4ccc(C(=O)Nc5ccccc5Cl)cc4)n3)cc2)CC1 (2.5 µM) | inactive: 0 |
| Cc1n[nH]cc1-c1cc2nc([C@@H]3CC4CCN3CC4)[nH]c(=O)c2s1 [Simurosertib] (2.5 µM) | inactive: 0 |
| O=C(N[C@@H](COc1ccc2[nH]c(=O)[nH]c2c1)c1ccccc1)c1cccn(Cc2ccc(F)c(F)c2)c1=O (2.5 µM) | inactive: 0 |
| CCOC(=O)c1c(/C(C#N)=C\N)c2ccc(Cl)c(Cl)c2n1C (10 µM) | inactive: 0 |
| C[C@H](CCC(=O)O)C[C@H](C)C[C@H](C)C(=O)/C=C(\O)[C@H](C)C[C@H](C)C/C=C/[C@@H](C)[C@@H](O)[C@@H](C)[C@@H](O)C[C@@H]1CC[C@@](C)([C@H]2CC[C@@](C)([C@@H](C)O)O2)O1 [Ionomycin (calcium)] (2.5 µM) | inactive: 0 |
| CC(C)(C)c1cc(C=C(C#N)C#N)cc(Br)c1O (2.5 µM) | inactive: 0 |
| C=CC(=O)N[C@H]1C=C(C)c2c(-c3cnc4ccccc4c3)c3c(N)ncnc3n2C1 (10 µM) | inactive: 0 |
| COC[C@H]1OC(=O)c2coc3c2[C@@]1(C)C1=C(C3=O)[C@@H]2CCC(=O)[C@@]2(C)C[C@H]1OC(C)=O [Wortmannin] (2.5 µM) | inactive: 0 |
| CC(=O)c1c(O)c(C)c(O)c(Cc2c(O)c3c(c(C(=O)/C=C/c4ccccc4)c2O)OC(C)(C)C=C3)c1O [Rottlerin] (2 µM) | inactive: 0 |
| NCCc1cn(S(=O)(=O)c2c(Cl)nc3sccn23)c2ccccc12 (10 µM) | inactive: 0 |

These molecules were tested against CAMK2A (UniProt Q9UQM7) in the same assay as above. Details: K562; 2-18 h.

| Structure (SMILES) | kinase-Nluc reporter destabilization hit call |
| --- | --- |
| CCCCNc1nc(N)c2[nH]c(=O)n(Cc3ccc(C)nc3)c2n1 (10 µM) | inactive: 0 |
| N#CC(C#N)=Cc1ccc([N+](=O)[O-])c(O)c1 (10 µM) | inactive: 0 |
| O=c1[nH]c2ccccc2n1C1CCN(Cc2ccc(-c3[nH]c4cc5ncnc5cc4nc3-c3ccccc3)cc2)CC1 [AKT inhibitor VIII] (2.5 µM) | inactive: 0 |
| CC(=O)Oc1ccc(/C=C/c2cc(OC(C)=O)cc(OC(C)=O)c2)cc1 [Triacetylresveratrol] (10 µM) | inactive: 0 |
| O=C1c2ccccc2C(=O)c2c1cccc2-c1cnn(C2CCNCC2)c1 [PDK4-IN-1 (hydrochloride)] (10 µM) | inactive: 0 |
| CC1C(=O)OC2C(O)C34C5OC(=O)C3(OC3OC(=O)C(O)C34C(C(C)(C)C)C5O)C12O (stereo unspecified) [Ginkgolide C] (10 µM) | inactive: 0 |
| O=Cc1cn(Cc2ccc(Cl)cc2)c2ccccc12 [Oncrasin-1] (10 µM) | inactive: 0 |
| N#CC(C#N)=NNc1cccc(Cl)c1 (2.5 µM) | inactive: 0 |
| CC(C)=CC[C@@H](OC(=O)CC(C)(C)O)C1=CC(=O)c2c(O)ccc(O)c2C1=O [β-Hydroxyisovalerylshikonin] (2.5 µM) | inactive: 0 |
| O=c1ccc2cc(O[C@@H]3O[C@H](CO)[C@@H](O)[C@H](O)[C@H]3O)c(O)cc2o1 [Esculin] (10 µM) | inactive: 0 |
| C[C@H]1CC[C@]2(NC1)O[C@H]1C[C@H]3[C@@H]4CC[C@H]5C[C@@H](O)CC[C@]5(C)[C@H]4CC[C@]3(C)[C@H]1[C@@H]2C [Tomatidine] (2 µM) | inactive: 0 |
| C/C(O)=C(\C#N)C(=O)Nc1cc(Br)ccc1Br (10 µM) | inactive: 0 |
| COc1ccc2c(c[n+](C)c3c4cc5c(cc4ccc23)OCO5)c1OC [Chelerythrine (chloride)] (10 µM) | inactive: 0 |
| COc1ccc2c(c1)[nH]c1c(C)nccc12 [Harmine] (10 µM) | inactive: 0 |
| CCCCCCCCCCCCCCCCOC[C@H](COP(=O)([O-])OCC[N+](C)(C)C)OC(C)=O (10 µM) | inactive: 0 |
| O=C(O)c1sc2cc(Cl)ccc2c1Cl (10 µM) | inactive: 0 |
| C[S+]([O-])/C=C/CCN=C=S (stereo unspecified) [Sulforaphene] (10 µM) | inactive: 0 |
| Cn1cc(C2=C(c3cn(C4CCN(Cc5ccccn5)CC4)c4ccccc34)C(=O)NC2=O)c2ccccc21 [Enzastaurin] (10 µM) | inactive: 0 |
| CCN1CCN(C(=O)Cc2ccc(Nc3ncc(F)c(Nc4ccc(C(=O)Nc5ccccc5Cl)cc4)n3)cc2)CC1 (2.5 µM) | inactive: 0 |
| Cc1n[nH]cc1-c1cc2nc([C@@H]3CC4CCN3CC4)[nH]c(=O)c2s1 [Simurosertib] (2.5 µM) | inactive: 0 |
| O=C(N[C@@H](COc1ccc2[nH]c(=O)[nH]c2c1)c1ccccc1)c1cccn(Cc2ccc(F)c(F)c2)c1=O (2.5 µM) | inactive: 0 |
| CCOC(=O)c1c(/C(C#N)=C\N)c2ccc(Cl)c(Cl)c2n1C (10 µM) | inactive: 0 |
| C[C@H](CCC(=O)O)C[C@H](C)C[C@H](C)C(=O)/C=C(\O)[C@H](C)C[C@H](C)C/C=C/[C@@H](C)[C@@H](O)[C@@H](C)[C@@H](O)C[C@@H]1CC[C@@](C)([C@H]2CC[C@@](C)([C@@H](C)O)O2)O1 [Ionomycin (calcium)] (2.5 µM) | inactive: 0 |
| CC(C)(C)c1cc(C=C(C#N)C#N)cc(Br)c1O (2.5 µM) | inactive: 0 |
| C=CC(=O)N[C@H]1C=C(C)c2c(-c3cnc4ccccc4c3)c3c(N)ncnc3n2C1 (10 µM) | inactive: 0 |
| COC[C@H]1OC(=O)c2coc3c2[C@@]1(C)C1=C(C3=O)[C@@H]2CCC(=O)[C@@]2(C)C[C@H]1OC(C)=O [Wortmannin] (2.5 µM) | inactive: 0 |
| CC(=O)c1c(O)c(C)c(O)c(Cc2c(O)c3c(c(C(=O)/C=C/c4ccccc4)c2O)OC(C)(C)C=C3)c1O [Rottlerin] (2 µM) | inactive: 0 |
| NCCc1cn(S(=O)(=O)c2c(Cl)nc3sccn23)c2ccccc12 (10 µM) | inactive: 0 |
